Measured data: PubChem BioAssay AID1159578 (Peter MacCallum Cancer Centre, 2015)

Assay: 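siRNA pools altering how lymphatic endothelial cells close a scratch wound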 (primary screen)
Cell system: human lymphatic endothelial cells
Reagents: siRNA pool against human genes, 40 nM
Timing: 48 h after transfection
Measurement: 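High-content imaging of dye-stained cells in a scratch assay measures filled wound area and nuclei per well; duplicate means given as ratio to mock and robust z-score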
Scale: migration robust z-score: higher = faster migration into the scratch; nuclei per well: higher = more cells in the well
Hit rule: 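Migration changed when robust z exceeds 2 or falls below -2 and mean nuclei number is at least 3300; otherwise not called changed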
Calls: active = migration changed; inactive = no migration change, or too few cells
In all, the deposit lists about 18,000 reagents; shown is an unselected part. About 1,030 of them (5.7%) were called active. 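Inactive calls also include pools with fewer than 3300 nuclei, whose migration was not assessed.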 Raw values vary from plate to plate and are shown uncorrected. Further read-outs or replicates are left out here.

EDA (ectodysplasin A) scored migration robust z-score 0.65; migration class with cell-count check migration z between -2 and 2; enough cells; nuclei per well, duplicate mean 6637; inactive.
RIPK4 (receptor interacting serine/threonine kinase 4) scored migration robust z-score -1.98; migration class with cell-count check migration z between -2 and 2; enough cells; nuclei per well, duplicate mean 5566; inactive.
Against TEX261 (testis expressed 261), the values are migration robust z-score 0.92; migration class with cell-count check migration z between -2 and 2; enough cells; nuclei per well, duplicate mean 6114; inactive.
For ATRAID (all-trans retinoic acid induced differentiation factor), the entry reads migration robust z-score -2.46; migration class with cell-count check migration z below -2; enough cells; nuclei per well, duplicate mean 5276; active.
Silencing of MGAT4C (MGAT4 family member C) came out at: migration robust z-score 1.27; migration class with cell-count check migration z between -2 and 2; enough cells; nuclei per well, duplicate mean 4577; inactive.
Knock-down of TAS2R7 (taste 2 receptor member 7) resulted in: migration robust z-score -1.57; migration class with cell-count check migration z between -2 and 2; enough cells; nuclei per well, duplicate mean 5615; inactive.
After knock-down of ESYT1 (extended synaptotagmin 1), the record shows migration robust z-score -0.68; migration class with cell-count check migration z between -2 and 2; enough cells; nuclei per well, duplicate mean 6002; inactive.
After knock-down of NUDT8 (nudix hydrolase 8), the record shows migration robust z-score 0.68; migration class with cell-count check migration z between -2 and 2; enough cells; nuclei per well, duplicate mean 6222; inactive.
Silencing of LPAR4 (lysophosphatidic acid receptor 4) came out at: migration robust z-score -0.18; migration class with cell-count check migration z between -2 and 2; enough cells; nuclei per well, duplicate mean 5739; inactive.

Look-ups from above.
For “nuclei per well, duplicate mean”, LPAR4 (lysophosphatidic acid receptor 4) has 5739
Under “nuclei per well, duplicate mean”, TEX261 (testis expressed 261) shows 6114

Further results follow.
SNX9 (sorting nexin 9) gave migration robust z-score -3.27; migration class with cell-count check under 3300 nuclei; migration not judged; nuclei per well, duplicate mean 3234; inactive.
PAX5 (paired box 5) scored migration robust z-score 0.28; migration class with cell-count check migration z between -2 and 2; enough cells; nuclei per well, duplicate mean 5954; inactive.
Against GBGT1, the entry reads migration robust z-score 0.6; migration class with cell-count check migration z between -2 and 2; enough cells; nuclei per well, duplicate mean 6250; inactive.
Knock-down of SLC25A25 resulted in: migration robust z-score -0.1; migration class with cell-count check migration z between -2 and 2; enough cells; nuclei per well, duplicate mean 5693; inactive.
MTX2 (metaxin 2) gave migration robust z-score -0.28; migration class with cell-count check migration z between -2 and 2; enough cells; nuclei per well, duplicate mean 6188; inactive.
